The assay is described as follows: qHTS Assay for Lipid Storage Modulators in Drosophila S3 Cells.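 On cell number change: cells counted by Cell Tracker Red CMTPX staining in the red channel.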 The note with it: BODIPY lipid droplet fluorescence, 18-24 h; for cell number change: measured here: cell count max response, cells fed with added oleic acid. A digest of the protocol: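 Laser-scanning cytometry quantifies lipid droplet accumulation (500–530 nm total intensity; droplet/cell object ratio) in oleic acid-fed (400 uM added) Drosophila S3 cells treated with a concentration series. 20 uM Triacsin C defined 100% inhibition.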

The mark [1] stands for this setting: measured here: cell number channel AC50, cells fed with added oleic acid.
[2] abbreviates: measured here: lipid fluorescence (Fed channel) AC50, cells fed with added oleic acid.

This is one part of the list. Further columns of the screen follow, without active or inactive calls. Compounds called inactive in the main read-out are mostly missing here. The note in brackets gives the kind of curve behind each potency; many fits are weak.

Usually AC50 stands for the midpoint of the concentration-response curve, whichever way the signal moves. In the case of `COc1ccccc1N1CCN(C(=O)C2CCN(S(=O)(=O)c3ccc4c(c3)CC(C)N4C(C)=O)CC2)CC1` (configuration not stated), under setting [1], the AC50 is 0.146 µM [falling, full curve, poor fit].

`Cc1ccc2cc3cc(C(=O)N4CCCCCC4)oc3nc2c1`: the AC50 under setting [1] was 3.26 µM [rising, partial curve].

For `Cc1ccc(C)c(-c2csc(NC(=O)C3=COCCO3)n2)c1`, the AC50 under setting [1] was 6.51 µM [rising, single point].

Turning to `Clc1nssc1=Nc1ccccc1`, the cell number change is -76%. Under setting [1], the AC50 was 29.1 µM [falling, single point]. Further, the AC50 under setting [2] is 29.1 µM [falling, single point].

As to `Cc1ccccc1NC(=O)Cc1nc(COC(=O)c2ccc([N+](=O)[O-])cc2)cs1`, the cell number change is -12.5%.

`CC1(C(=O)NNC(=O)c2ccc(=O)oc2)CC1Br` (configuration not stated): the cell number change amounted to 31.6%.

As for `CC(C)Oc1ccc(NC(=O)C2CCCNC2=O)cc1` (configuration not stated), the cell number change was -9.75%.

For `O=C(Oc1ccc2ccccc2c1Cl)N1CCCC1`, the cell number change was -24.7%. Besides, under setting [2], the AC50 is 10.3 µM [rising, partial curve, poor fit].

For `CCn1c(SCC(=O)c2c(N)n(C3CC3)c(=O)[nH]c2=O)nc2cc(S(N)(=O)=O)ccc21`, the cell number change was -43.6%. In addition, under setting [1], the AC50 is 6.51 µM [falling, full curve]. Besides, under setting [2], the AC50 was 5.8 µM [falling, full curve].

With `COC(=O)/C(C(C)=O)=C(/C=C/C=C/N(C)C)N(C)C`, the cell number change was -31.9%. Besides, the AC50 under setting [1] was 18.4 µM [falling, single point]. Also, under setting [2], the AC50 is 29.1 µM [falling, single point].

For `CCOc1ccc(OCCNC(=O)c2oc3ccccc3c2COC)cc1`, the cell number change was determined as 1.94%. Also, the AC50 under setting [2] was 25.9 µM [falling, single point].

For `CCn1nnnc1SCC(=O)Nc1nc(-c2cccs2)cs1`, the cell number change was -33%. Besides, the AC50 under setting [1] is 29.1 µM [falling, single point]. Moreover, the AC50 under setting [2] was 29.1 µM [falling, single point].

As to `Cc1ccc(OCCOC(=O)c2sc(=S)n(C)c2C)cc1`, the cell number change is 4.94%. Under setting [2], the AC50 was 29.1 µM [falling, single point].

Take `COC(=O)c1cc(Br)ccc1OC(=O)c1cccnc1`: the cell number change was 2.35%. The AC50 under setting [2] was 0.00461 µM [falling, full curve, poor fit].

Take `O=C(NCc1cccnc1)C1CCC(CNS(=O)(=O)c2ccc(Cl)cc2)CC1` (configuration not stated): the AC50 under setting [1] was 2.31 µM [rising, single point] and the AC50 under setting [2] was 4.11 µM [rising, single point].

With `COc1ccc(/C=N/n2c(C)nc3ccccc3c2=O)cc1OC`, the cell number change was 44.7%. In addition, under setting [1], the AC50 was 11.6 µM [rising, partial curve, poor fit].

Take `CSc1nc2ccc3nc(NC(=O)c4ccccc4)sc3c2s1`: the cell number change is -31%. Moreover, the AC50 under setting [1] is 20.6 µM [falling, single point]. The AC50 under setting [2] is 13 µM [falling, partial curve].

Regarding `CCOc1ccc(-c2nc(-c3cccnc3)no2)cc1OCC`, the cell number change is -4.92%. Moreover, under setting [2], the AC50 was 20.6 µM [rising, single point].

For `O=C(/C=C/c1ccccc1Cl)N1CCN(c2ncccn2)CC1`, the cell number change came to 40.8%. Moreover, under setting [1], the AC50 was 0.651 µM [rising, full curve]. For the same compound, the AC50 under setting [2] was 2.06 µM [rising, partial curve].

Regarding `CCOC(=O)c1c(O)c2c(n(Cc3ccco3)c1=O)CCCC2`, the cell number change was -0.195%. Further, the AC50 under setting [2] is 0.146 µM [falling, full curve].

On to `CC12CCC(C/C1=N/O)C2(C)C` (configuration not stated), for which the cell number change was -51.6%. Moreover, under setting [1], the AC50 was 3.26 µM [falling, single point]. Moreover, the AC50 under setting [2] is 0.00411 µM [falling, full curve, poor fit].

As to `CC(C)C[C@H](NC(=O)C1CCN(S(=O)(=O)c2ccccc2)CC1)C(=O)NCc1ccccn1`, the AC50 under setting [2] is 5.17 µM [falling, single point].

On to `CN(C)Cc1c(O)ccc2cc(-c3nc4ccccc4n3C)c(=O)oc12`, for which the cell number change was -35.7%. Under setting [1], the AC50 was 32.6 µM [falling, single point]. Under setting [2], the AC50 was 0.651 µM [falling, partial curve, poor fit].

In the case of `CCc1nc(NCCN2CCOCC2)c(C#N)c2c1CCCC2`, the cell number change is -33.5%. Moreover, under setting [1], the AC50 was 0.651 µM [falling, full curve]. For the same compound, the AC50 under setting [2] was 0.13 µM [falling, full curve, poor fit].

As to `CCOCCCNC(=O)N[C@@H](C)C(=O)OC`, the cell number change is -0.624%.

`CC(C)c1ccc([N+](=O)[O-])cc1S(=O)(=O)N1CCN(C)CC1`: the cell number change worked out at 42.2%. Also, the AC50 under setting [1] is 29.1 µM [rising, single point].

Turning to `C=CCc1cccc2cc(C(=O)N3CCN(C(=O)OCC)CC3)c(=O)oc12`, the AC50 was 2.59 µM [rising, partial curve] under setting [1] and 0.58 µM [rising, single point] under setting [2].

Turning to `COc1ccc(C(=O)COC(=O)/C=C/c2ccccc2)cc1`, the cell number change was -0.232%. Also, the AC50 under setting [2] is 0.562 µM [rising, full curve, poor fit].

`O=C(NCCNC(=O)c1ccccc1F)c1ccccn1`: the cell number change is 2.63%. The AC50 under setting [2] is 6.31 µM [rising, single point].

Turning to `CCC(C)NC(=O)CSc1nnc(-c2cc(-c3cccs3)nc3ccccc23)o1` (configuration not stated), the cell number change was 104%. Under setting [1], the AC50 was 0.92 µM [rising, full curve]. Under setting [2], the AC50 was 0.259 µM [rising, partial curve].

For the compound `CC1(C)NC(=O)N(CC(O)CN2CCCCC2)C1=O` (configuration not stated), the cell number change was -23.2%. Also, the AC50 under setting [1] was 0.0058 µM [falling, full curve, poor fit]. Further, under setting [2], the AC50 was 7.31 µM [falling, partial curve].

With `CCN(CC)S(=O)(=O)c1cccc(NC(=O)CSc2nnc(N)s2)c1`, the cell number change was 14.1%.

Turning to `CC(=O)c1c(C)[nH]c(C(=O)CSc2nnc(NC3CC3)s2)c1C`, the cell number change stood at 73.1%. For the same compound, under setting [1], the AC50 was 2.06 µM [rising, partial curve, poor fit].

Take `COc1ccc2[nH]c(=O)c(CN(Cc3cccs3)C(=S)Nc3ccccc3)cc2c1`: the cell number change was found to be 13%. Under setting [2], the AC50 was 3.26 µM [rising, full curve].

Consider `CN(CC(=O)Nc1ccc(F)cc1)C(=O)C1CCN(S(=O)(=O)c2ccc3c(c2)OCCO3)CC1`, for which the cell number change turned out to be 0.942%. Moreover, under setting [1], the AC50 is 4.61 µM [falling, single point]. Moreover, the AC50 under setting [2] is 6.51 µM [falling, single point].

Turning to `COc1ccc(/C=C2/SC(=S)N(NS(=O)(=O)c3ccc(C)cc3)C2=O)cc1`, the cell number change worked out at 5.71%. Moreover, the AC50 under setting [1] was 0.116 µM [rising, partial curve, poor fit].

In the case of `COc1ccccc1-n1cc(C(=O)N2CCCC(CO)(Cc3ccccc3C)C2)cn1` (configuration not stated), the cell number change amounted to 23%. The AC50 under setting [2] is 13 µM [rising, partial curve, poor fit].

Turning to `COc1ccc(CCC(=O)NCc2cnn(C)c2)cc1`, the cell number change is -1.13%. Also, the AC50 under setting [2] is 0.651 µM [falling, single point].

`CCOC(=O)c1c(C)[nH]c(C(=O)CN2C(=O)NC(CC)(c3ccccc3)C2=O)c1C` (configuration not stated): the cell number change was -15.9%. Also, the AC50 under setting [2] was 0.651 µM [falling, partial curve, poor fit].

In the case of `O=C(Nc1cccnc1)C1CCCN(c2ncnc3c2nc2n3CCCCC2)C1` (configuration not stated), the AC50 under setting [2] is 0.58 µM [rising, single point].

In the case of `COc1ccc(-c2noc(CCC(=O)N3CCN(Cc4ccccc4)CC3)n2)cc1`, the cell number change was 31%. For the same compound, under setting [1], the AC50 is 25.9 µM [rising, single point].

Regarding `COc1ccc(NC(=S)N2CCN(S(=O)(=O)c3ccccc3)CC2)cc1`, the cell number change came to 19.9%.

Take `COc1ccc(-c2csc3ncnc(Oc4ccc5c(C)cc(=O)oc5c4)c23)cc1`: the cell number change stood at 3.74%. For the same compound, under setting [2], the AC50 was 0.731 µM [rising, full curve].

In the case of `Clc1ccc(/C=C/c2nc(Cl)c(-c3ccc(Cl)cc3)c(Cl)n2)cc1`, the cell number change is -8.87%. In addition, under setting [2], the AC50 is 0.164 µM [falling, full curve, poor fit].

Turning to `Cn1nc(-c2ccccc2)nc1-c1ccccc1`, the cell number change turned out to be 15.7%. Besides, the AC50 under setting [2] is 0.0651 µM [rising, full curve].

As for `Nc1cc(Oc2ccc(F)cc2F)cc([N+](=O)[O-])c1`, the cell number change was -26.8%. The AC50 under setting [2] is 29.1 µM [falling, single point].

For the compound `O=c1[nH]ncc2c3ccccc3n(Cc3cccc(Cl)c3)c12`, the cell number change worked out at 48.6%.

Take `O=C(c1c(F)cccc1F)N1CCN(c2cccc(C(F)(F)F)c2)CC1`: the cell number change was -10.3%. Also, the AC50 under setting [2] was 23.1 µM [falling, single point].

For the compound `O=C(CN1CCSCC1)N/N=C/c1ccc(Cl)cc1`, the cell number change is -39.5%. Moreover, the AC50 under setting [1] was 32.6 µM [falling, single point].

In the case of `COc1ccc(-c2sc3ccc(OC)cc3c2C#Cc2ccccn2)cc1`, the cell number change was -25.8%. The AC50 under setting [1] was 0.58 µM [rising, single point].

`CC(c1ccco1)N(C(=O)COc1ccc(Cl)cc1Cl)c1ccccn1` (configuration not stated): the AC50 under setting [1] is 0.0058 µM [falling, full curve, poor fit] and the AC50 under setting [2] is 0.231 µM [falling, full curve, poor fit].

For the compound `COc1ccc(NC(=O)CNC(=O)c2nn(-c3ccc(OC)cc3OC)c(=O)c3ccccc23)c(OC)c1`, the cell number change stood at 106%. Under setting [1], the AC50 was 25.9 µM [rising, partial curve]. In addition, under setting [2], the AC50 is 29.1 µM [rising, single point].

Regarding `O=C(/C=C/c1ccco1)NC(=S)Nc1ccc(N2CCCC2)cc1`, the cell number change was -76.7%. The AC50 under setting [1] is 23.1 µM [falling, single point].

With `O=c1c2ccccc2nc(SCc2cccc(F)c2)n1-c1cccc(S(=O)(=O)N2CCCC2)c1`, the cell number change worked out at 13.2%. The AC50 under setting [1] is 2.06 µM [rising, partial curve]. In addition, the AC50 under setting [2] is 5.8 µM [rising, single point].

Consider `COc1cccc2c(SCC(=O)N/N=C/c3ccc(O)cc3O)cc(C)nc12`, for which the cell number change is -34%. In addition, the AC50 under setting [2] was 0.103 µM [falling, partial curve, poor fit].

For the compound `CN1C(=O)C(/C(N)=N/NC(=O)c2ccccc2)C2CC1(C)Oc1ccccc12` (configuration not stated), the cell number change came to 0.411%. The AC50 under setting [2] was 4.11 µM [falling, single point].

`C(#Cc1ccccc1)Cn1nnc2ccccc21`: the cell number change is 58.5%. Under setting [1], the AC50 is 0.146 µM [rising, full curve, poor fit]. Under setting [2], the AC50 was 0.082 µM [rising, full curve].

The values are drawn from PubChem BioAssay AID2685 (National Center for Advancing Translational Sciences (NCATS), 2010).
